# PubChem BioAssay AID1159578 – Peter MacCallum Cancer Centre, 2015
# Assay: 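Genome-wide hunt for genes controlling movement of lymphatic endothelial cells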 (primary screen)
# Cells: human lymphatic endothelial cells
# Reagents: siRNA pool against human genes, 40 nM
# Time to read-out: 48 h after transfection
# Read-out: 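Cells stained with dye and imaged after a scratch; covered wound area and nuclei counted, duplicates averaged, migration set against mock wells and turned into a robust z-score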
# Reading the numbers: migration robust z-score: higher = faster migration into the scratch; migration relative to mock: higher = more scratch area covered than mock; nuclei per well: higher = more cells in the well
# Rule for the call: 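Pools averaging fewer than 3300 nuclei are never called; remaining pools count as changed when migration robust z lies outside -2 to 2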
# Meaning of the calls: active = migration changed; inactive = no migration change, or too few cells
# Here is a random part of about 18,000 reagents tested. About 1,030 of all reagents (5.7%) count as active. 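Inactive calls also include pools with fewer than 3300 nuclei, whose migration was not assessed.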 Raw values vary from plate to plate and are shown uncorrected.
target gene,migration robust z-score,migration class with cell-count check,migration relative to mock,"nuclei per well, duplicate mean",call
C16orf89,1.16,migration z between -2 and 2; enough cells,1.19,6462,inactive
PIP4K2C,-0.65,migration z between -2 and 2; enough cells,0.68,5246,inactive
RPS21,-1.34,under 3300 nuclei; migration not judged,0.53,3194,inactive
CTNS,0.64,migration z between -2 and 2; enough cells,0.93,7440,inactive
QRFP,-0.54,migration z between -2 and 2; enough cells,0.74,5518,inactive
SPIC,-0.34,migration z between -2 and 2; enough cells,0.74,6475,inactive
GLE1,0.52,migration z between -2 and 2; enough cells,1.02,5740,inactive
PDGFC,0.94,migration z between -2 and 2; enough cells,1.13,5606,inactive
ATP8A1,0.1,migration z between -2 and 2; enough cells,0.83,7028,inactive
RLF,-0.6,migration z between -2 and 2; enough cells,0.69,5849,inactive
SULF2,0.13,migration z between -2 and 2; enough cells,0.83,5819,inactive
AP4B1,-0.64,migration z between -2 and 2; enough cells,0.72,5310,inactive
SH3RF1,0.55,migration z between -2 and 2; enough cells,0.91,6459,inactive
ACP4,-0.6,migration z between -2 and 2; enough cells,0.69,5516,inactive
BOLA3,0.74,migration z between -2 and 2; enough cells,1.08,4930,inactive
VAPA,-0.97,migration z between -2 and 2; enough cells,0.64,4974,inactive
B4GALT7,-0.78,migration z between -2 and 2; enough cells,0.66,5494,inactive
TAF5L,-0.96,migration z between -2 and 2; enough cells,0.62,5852,inactive
HAGHL,-0.75,migration z between -2 and 2; enough cells,0.66,5402,inactive
FANCD2OS,-2.07,migration z below -2; enough cells,0.35,5738,active
SHOX,0.42,migration z between -2 and 2; enough cells,0.88,6012,inactive
ALDH7A1,0.98,migration z between -2 and 2; enough cells,1,5752,inactive
ZNF607,-0.22,migration z between -2 and 2; enough cells,0.82,5894,inactive
